# Assay results from publication PMC10573421.
# Amino acid sequences for entries named in this document (tags omitted). A change or cut given only in a name is not applied to a line headed by its entry.
# UniProt P78504: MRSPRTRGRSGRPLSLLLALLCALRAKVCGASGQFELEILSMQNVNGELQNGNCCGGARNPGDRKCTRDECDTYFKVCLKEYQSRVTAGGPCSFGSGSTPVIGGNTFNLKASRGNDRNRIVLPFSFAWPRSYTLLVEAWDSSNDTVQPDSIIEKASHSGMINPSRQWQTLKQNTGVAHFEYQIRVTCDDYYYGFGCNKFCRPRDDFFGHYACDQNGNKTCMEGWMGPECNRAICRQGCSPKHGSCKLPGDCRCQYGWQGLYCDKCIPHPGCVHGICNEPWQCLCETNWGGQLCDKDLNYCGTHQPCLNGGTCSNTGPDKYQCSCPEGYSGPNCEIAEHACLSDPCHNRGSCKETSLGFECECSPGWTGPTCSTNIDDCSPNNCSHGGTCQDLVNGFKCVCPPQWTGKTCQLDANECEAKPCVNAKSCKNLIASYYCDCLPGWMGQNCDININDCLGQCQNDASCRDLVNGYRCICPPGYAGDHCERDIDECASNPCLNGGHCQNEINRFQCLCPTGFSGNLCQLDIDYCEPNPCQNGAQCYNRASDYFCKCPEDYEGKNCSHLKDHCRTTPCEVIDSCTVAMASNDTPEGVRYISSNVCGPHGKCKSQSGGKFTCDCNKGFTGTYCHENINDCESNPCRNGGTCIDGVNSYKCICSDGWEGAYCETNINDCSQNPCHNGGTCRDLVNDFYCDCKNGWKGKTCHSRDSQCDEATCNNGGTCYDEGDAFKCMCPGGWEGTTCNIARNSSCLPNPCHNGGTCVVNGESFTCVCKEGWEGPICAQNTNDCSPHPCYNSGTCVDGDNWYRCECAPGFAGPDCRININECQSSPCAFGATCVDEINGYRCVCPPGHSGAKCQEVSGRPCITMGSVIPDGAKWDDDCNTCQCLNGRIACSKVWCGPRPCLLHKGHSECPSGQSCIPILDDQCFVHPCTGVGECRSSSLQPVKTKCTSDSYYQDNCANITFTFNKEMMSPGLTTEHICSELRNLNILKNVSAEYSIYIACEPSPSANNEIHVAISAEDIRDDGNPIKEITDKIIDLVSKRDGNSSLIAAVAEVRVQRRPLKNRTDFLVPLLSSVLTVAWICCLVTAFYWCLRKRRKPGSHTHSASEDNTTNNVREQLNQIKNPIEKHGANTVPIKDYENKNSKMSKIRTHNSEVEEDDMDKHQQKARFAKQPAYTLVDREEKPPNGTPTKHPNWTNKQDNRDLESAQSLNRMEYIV
# UniProt P07355: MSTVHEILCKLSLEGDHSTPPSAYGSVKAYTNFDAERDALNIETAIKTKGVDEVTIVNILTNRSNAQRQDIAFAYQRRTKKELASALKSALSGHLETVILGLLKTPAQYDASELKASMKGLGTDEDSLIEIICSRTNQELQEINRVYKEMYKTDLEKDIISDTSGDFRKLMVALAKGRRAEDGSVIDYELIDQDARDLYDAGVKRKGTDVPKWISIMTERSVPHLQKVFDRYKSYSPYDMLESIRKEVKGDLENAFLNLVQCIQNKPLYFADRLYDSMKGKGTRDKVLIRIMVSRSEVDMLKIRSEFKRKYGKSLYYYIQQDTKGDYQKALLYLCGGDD
# UniProt P11142: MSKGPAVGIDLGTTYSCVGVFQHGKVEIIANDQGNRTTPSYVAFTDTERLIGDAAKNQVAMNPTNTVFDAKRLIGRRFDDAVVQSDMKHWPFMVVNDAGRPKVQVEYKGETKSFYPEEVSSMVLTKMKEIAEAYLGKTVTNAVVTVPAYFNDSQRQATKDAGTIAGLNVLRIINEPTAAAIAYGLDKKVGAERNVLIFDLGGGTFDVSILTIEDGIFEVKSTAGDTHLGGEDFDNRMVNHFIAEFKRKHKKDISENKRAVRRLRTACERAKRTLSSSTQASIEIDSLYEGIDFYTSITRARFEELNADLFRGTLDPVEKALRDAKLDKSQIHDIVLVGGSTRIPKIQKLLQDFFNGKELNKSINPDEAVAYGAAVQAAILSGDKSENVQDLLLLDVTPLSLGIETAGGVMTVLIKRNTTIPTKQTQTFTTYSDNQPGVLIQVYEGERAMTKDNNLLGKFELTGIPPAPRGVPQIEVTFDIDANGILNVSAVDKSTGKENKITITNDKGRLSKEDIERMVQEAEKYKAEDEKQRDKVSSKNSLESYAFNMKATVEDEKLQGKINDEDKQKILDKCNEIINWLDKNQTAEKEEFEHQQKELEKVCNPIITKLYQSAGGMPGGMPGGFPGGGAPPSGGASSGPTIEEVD
# These are yes or no findings as the source states them, for the method shown. In cells and extracts the contact can be indirect. Binding can be weak; no strength is given.
# Columns and labels:
# [1] = biological target: JICD1-HA-FLAG (JAG1 intracellular domain) (UniProt P78504); test: proximity ligation; Duolink PLA against HA and ANXA2 in LN18 JICD1-HA-FLAG cells
# [2] = biological target: JICD1-HA-FLAG (JAG1 intracellular domain) (UniProt P78504); test: co-IP; IP against HA from LN18 JICD1-HA-FLAG cells with or without ANXA2 knockdown; blots for HSC70 and HSP90
binding [1],binding [2],Substance
binds,,"Annexin A2 (ANXA2), endogenous (from UniProt P07355 1-339)"
,binds,HSPA8 (HSC70) (from UniProt P11142 1-646)
